Data reported in publication PMC6785266.

Chains of the proteins cited; added tags and fusions are not shown. Lines headed by an entry give the natural chain unless they say otherwise; changes in a name come on top.
UniProt P23359: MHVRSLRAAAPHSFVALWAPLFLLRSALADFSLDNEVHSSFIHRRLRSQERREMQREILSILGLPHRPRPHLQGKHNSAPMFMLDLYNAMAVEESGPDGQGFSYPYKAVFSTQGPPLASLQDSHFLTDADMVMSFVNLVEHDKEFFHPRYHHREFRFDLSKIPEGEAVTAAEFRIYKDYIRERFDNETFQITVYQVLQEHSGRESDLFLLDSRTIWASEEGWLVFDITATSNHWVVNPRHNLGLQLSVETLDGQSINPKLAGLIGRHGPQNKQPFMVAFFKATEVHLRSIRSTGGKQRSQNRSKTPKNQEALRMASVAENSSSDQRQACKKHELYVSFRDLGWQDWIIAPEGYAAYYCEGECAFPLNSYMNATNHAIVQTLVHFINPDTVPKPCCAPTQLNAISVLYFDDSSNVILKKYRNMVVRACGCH

What was measured:
[1] = molecular target: BMP7R-GFlag precursor protein (knock-in allele Bmp7^R-GFlag) (mouse); test: co-IP; 1 mg E11.5 mouse embryo lysate in IP lysis buffer (150 mM NaCl, 20 mM Tris-Cl pH 7.5, 1 mM EDTA, 1% sodium deoxycholate, 1% NP40); anti-Flag agarose overnight at 4°C; immunoblot for BMP4; wild type littermates as control
[2] = molecular target: BMP7Flag (knock-in allele Bmp7^Flag) (mouse) (UniProt P23359); test: as above

- binding [1]: binds
- binding [2]: binds
B1: cleaved mature BMP4 ligand (endogenous) (ligand, UniProt P21275 293-408)
chain: SPKHHPQRSRKKNKNCRRHSLYVDFSDVGWNDWIVAPPGYQAFYCHGDCPFPLADHLNSTNHAIVQTLVNSVNSSIPKACCVPTELSAISMLYLDEYDKVVLKNYQEMVVEGCGCR

These are yes or no findings as the source states them, for the method shown. In cells and extracts the contact can be indirect. Binding can be weak; no strength is given.
